Paper PMC8360560

The chains behind the UniProt entries cited, without tags or fusion partners. Where a name states a change or a piece, a line headed by the entry shows the natural chain unless it says otherwise.
UniProt Q382W6: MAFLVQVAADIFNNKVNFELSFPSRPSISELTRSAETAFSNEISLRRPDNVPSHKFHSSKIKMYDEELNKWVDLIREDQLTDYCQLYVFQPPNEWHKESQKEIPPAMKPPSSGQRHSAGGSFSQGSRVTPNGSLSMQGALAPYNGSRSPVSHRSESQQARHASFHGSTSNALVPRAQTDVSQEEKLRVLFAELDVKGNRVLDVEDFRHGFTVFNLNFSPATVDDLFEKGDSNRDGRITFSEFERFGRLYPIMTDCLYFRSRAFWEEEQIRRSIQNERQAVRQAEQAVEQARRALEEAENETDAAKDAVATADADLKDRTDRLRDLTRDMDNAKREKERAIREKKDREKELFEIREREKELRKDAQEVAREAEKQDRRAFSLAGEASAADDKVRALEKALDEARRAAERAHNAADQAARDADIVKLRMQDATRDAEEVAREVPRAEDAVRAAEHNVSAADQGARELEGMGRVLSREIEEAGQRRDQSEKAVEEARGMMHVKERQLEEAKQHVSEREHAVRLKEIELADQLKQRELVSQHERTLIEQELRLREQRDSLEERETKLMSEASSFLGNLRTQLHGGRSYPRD

Target: BILBO2 (Tb927.6.3240), full-length (Trypanosoma brucei (Tb927 genomic DNA)) (UniProt Q584W7)
Assay: two-hybrid; direct tests on SC-W-L-H (minus histidine) medium, photos after 3 days; BILBO2 and its domains as bait (pGBKT7)

binding: binds
Substance: BILBO1 (from UniProt Q382W6)

These are yes or no findings as the source states them, for the method shown. Binding calls can cover weak binding; strength is not graded here.
